Results from PubChem BioAssay AID330 (DTP/NCI, 2004).
The list does not hold the whole screen: it gathers tests that were run many times, whatever their T/C, doses with no T/C, and many T/C values between a quarter and a half above the control. Other doses and runs of a compound stand elsewhere. T/C: endpoint of the treated group in % of that of the vehicle group. Some doses have a count of surviving animals in place of a T/C: the source holds a T/C of zero for them, seemingly a mark for toxic or unscored doses. Some survivor counts are full or nearly so, which does not show that the dose was tolerated: the source hardly ever lists a survival T/C far under the control, and the zero likely stands for such cases as well. Survivors were counted at the toxicity check, usually on the fifth day, unless a day is given; later deaths do not show. Schedules are NCI's codes, read here as Q, the interval in days (D) or hours (H), X, the number of doses. Some entries hold several experiments; their values stand side by side, smallest first. For survival time, this PubChem deposit counts one and a half times the control or more as active, and values a quarter to a half above the control carry no call in these data; other NCI protocols may use other cut-offs. Some T/C values carry the count of animals alive at the toxicity check (mostly the fifth day); where none is given, no animal had died by that day.

System: P388 leukemia ip, CD2F1 mice, survival T/C
Assay: NCI In Vivo Anticancer Drug Screen. Data for tumor model P388 Leukemia (intraperitoneal) in CD2F1 (CDF1) mice
Conditions: T/C endpoint: median survival time, higher T/C = longer survival
[1] = dose: 200.0 mg/kg/injection, schedule: Q01DX009 (ip), vehicle: saline with Tween-80
[2] = dose: 400.0 mg/kg/injection, schedule: Q01DX009 (ip), vehicle: saline with Tween-80
[3] = dose: 200.0 mg/kg/injection, schedule: Q01DX009 (ip), vehicle: distilled water + Tween-80
[4] = dose: 400.0 mg/kg/injection, schedule: Q01DX009 (ip), vehicle: distilled water + Tween-80
[5] = dose: 200.0 mg/kg/injection, schedule: Q01DX009 (ip), vehicle: other
[6] = dose: 100.0 mg/kg/injection, schedule: Q01DX009 (ip), vehicle: saline with Tween-80
[7] = dose: 50.0 mg/kg/injection, schedule: Q01DX009 (ip), vehicle: water
[8] = dose: 50.0 mg/kg/injection, schedule: Q01DX009 (ip), vehicle: saline with Tween-80
[9] = dose: 120.0 mg/kg/injection, schedule: Q01DX005 (ip), vehicle: saline with Tween-80
[10] = dose: 240.0 mg/kg/injection, schedule: Q01DX005 (ip), vehicle: saline with Tween-80
[11] = dose: 200.0 mg/kg/injection, schedule: Q01DX005 (ip), vehicle: Klucel (hydroxypropylcellulose) (HPC)
[12] = dose: 100.0 mg/kg/injection, schedule: Q01DX009 (ip), vehicle: other
[13] = dose: 400.0 mg/kg/injection, schedule: Q01DX009 (ip), vehicle: other
[14] = dose: 60.0 mg/kg/injection, schedule: Q01DX005 (ip), vehicle: saline
[15] = dose: 120.0 mg/kg/injection, schedule: Q01DX005 (ip), vehicle: saline
[16] = dose: 240.0 mg/kg/injection, schedule: Q01DX005 (ip), vehicle: saline

SMILES: NC(=S)N/N=C/c1ccc(OC(=O)COc2ccccc2)cn1
- survivor count [1]: 6 of 6
- survivor count [2]: 6 of 6

SMILES: Nc1nc(N)c(CCCOc2ccc(C(=O)O)cc2)c(N)n1
- survivor count (dose: 240.0 mg/kg/injection, schedule: Q01DX005 (ip), vehicle: Klucel (hydroxypropylcellulose) (HPC)): 3 of 6

SMILES: O=C(Nc1ccc([N+](=O)[O-])cc1)Nc1nncs1
- T/C [3]: 132 % of control [5 of 6 alive]
- T/C [4]: 142 % of control [5 of 6 alive]
- survivor count [4]: 1 of 6

SMILES: CC(C)(C)C1=CC(=O)C(=O)C(C(C)(C)C)=C1
- survivor count [5]: 0 of 6

SMILES: Clc1cc(Cl)c(OCC#CI)c(Cl)c1Cl
- survivor count [6]: 6 of 6
- survivor count [1]: 2 of 6
- survivor count (dose: 400.0 mg/kg/injection, schedule: Q04DX003 (ip), vehicle: saline with Tween-80): 3 of 6

SMILES: CCCCCCCCCCCCCCCCSC1=CC(=O)C(OC)=C(OC)C1=O
- survivor count (dose: 4.0 mg/kg/injection, schedule: Q01DX009 (ip), vehicle: Klucel (hydroxypropylcellulose) (HPC)): 6 of 6

SMILES: CC(C)C([N+](C)(C)C)P(=O)([O-])O (centres undefined)
- survivor count [2]: 6 of 6

SMILES: Nc1n[n+](-c2ccc3ccccc3c2)no1
- survivor count [7]: 6 of 6
- survivor count (dose: 100.0 mg/kg/injection, schedule: Q01DX009 (ip), vehicle: water): 0 of 6

SMILES: C[n+]1c(/C=N/NC(N)=S)ccc2ccccc21
- T/C [8]: 125 % of control
- survivor count [1]: 0 of 6

SMILES: O=C1OC2(C=C1Br)CCC21C=C(Br)C(=O)O1 (centres undefined)
- survivor count (dose: 50.0 mg/kg/injection, schedule: Q01DX009 (ip), vehicle: Klucel (hydroxypropylcellulose) (HPC)): 1 of 6
- survivor count (dose: 100.0 mg/kg/injection, schedule: Q01DX009 (ip), vehicle: Klucel (hydroxypropylcellulose) (HPC)): 0 of 6

SMILES: COc1cc2c(cc1OC)C1c3cc(OC)c(OC)cc3CCN1CC2
- survivor count [7]: 0 of 6

SMILES: COC(=O)C1=NC(=N)N=C(C(=O)OC)C1(C)C(=O)c1ccc(Cl)cc1 (centres undefined)
- survivor count [9]: 3 of 6
- survivor count [10]: 1 of 6

SMILES: C[CH2][Sn]1([CH2]C)[c]2ccccc2Oc2cccc[c]21
- survivor count [1]: 0 of 6

SMILES: C/C(=N\NC(=S)N1CCN(c2cnccn2)CC1)c1ccccn1
- T/C (dose: 15.0 mg/kg/injection, schedule: Q01DX005 (ip), vehicle: saline with Tween-80): 131 and 136 % of control [5 of 6 alive]
- survivor count (dose: 30.0 mg/kg/injection, schedule: Q01DX005 (ip), vehicle: saline with Tween-80): 1 of 6 and 2 of 6
- survivor count (dose: 60.0 mg/kg/injection, schedule: Q01DX005 (ip), vehicle: saline with Tween-80): 0 of 6
- survivor count [9]: 0 of 6
- survivor count [10]: 0 of 6

SMILES: C(=N/n1nnc(-c2ccccc2)n1)/c1ccccc1
- survivor count (dose: 200.0 mg/kg/injection, schedule: Q01DX005 (ip), vehicle: saline with Tween-80): 5 of 5

SMILES: C=CC1=C(C)C2=NC1=CC1=NC(=CC3=C(C)C4=C(O)C(C(=O)O)C(=C5NC(=C2)C(C)C5CCC(=O)O)C4=N3)C(CC)=C1C (centres undefined)
- survivor count (dose: 25.0 mg/kg/injection, schedule: Q01DX005 (ip), vehicle: suspension in saline): 0 of 5

SMILES: CCN(CC)c1ccc(NC(c2ccccc2)C(O)c2ccccc2)cc1 (centres undefined)
- survivor count [11]: 0 of 5

SMILES: COc1cc(Br)c(C(=O)N(C)c2ccccc2)cc1OC
- survivor count [12]: 3 of 6
- survivor count [5]: 0 of 6
- survivor count [13]: 0 of 6

SMILES: O=C(Cc1nc(-c2ccc(Cl)cc2)no1)c1ccccc1
- survivor count [1]: 6 of 6

SMILES: COc1c(Br)cc(/C=C(/C)[N+](=O)[O-])cc1Br
- survivor count (dose: 200.0 mg/kg/injection, schedule: Q04DX003 (ip), vehicle: saline with Tween-80): 3 of 6

SMILES: Brc1ccc2c(ccc3c2nnc2nccn23)c1
- survivor count (dose: 120.0 mg/kg/injection, schedule: Q01DX005 (ip), vehicle: Klucel (hydroxypropylcellulose) (HPC)): 6 of 6

SMILES: S=C(Nc1ccccc1)SSC(Cl)(Cl)Cl
- survivor count [1]: 2 of 6

SMILES: COc1ccc(/C=C2\SC(=O)N(C)C2=O)cc1OC
- survivor count [11]: 5 of 5

SMILES: CCCCCCCCCCCCCCCC[N+]1([O-])CCCC1
- survivor count (dose: 100.0 mg/kg/injection, schedule: Q01DX009 (ip), vehicle: saline): 6 of 6
- survivor count (dose: 200.0 mg/kg/injection, schedule: Q01DX009 (ip), vehicle: saline): 0 of 6

SMILES: O=[N+]([O-])c1cccc2c[n+](Cc3ccccc3)ccc12
- survivor count [6]: 2 of 6

SMILES: C=CCN(CC=C)c1cc(NN)nnc1Cl
- survivor count [12]: 0 of 6
- survivor count [5]: 0 of 6
- survivor count [13]: 0 of 6

SMILES: Cn1c(-c2ccccc2)c(COC(=O)NC2CCCCC2)c(COC(=O)NC2CCCCC2)c1-c1ccc(Cl)cc1
- T/C (dose: 12.5 mg/kg/injection, schedule: Q01DX009 (ip), vehicle: distilled water + Tween-80): 127 % of control
- T/C (dose: 18.8 mg/kg/injection, schedule: Q01DX009 (ip), vehicle: distilled water + Tween-80): 131 % of control
- T/C (dose: 25.0 mg/kg/injection, schedule: Q01DX009 (ip), vehicle: distilled water + Tween-80): 136 % of control
- T/C (dose: 37.5 mg/kg/injection, schedule: Q01DX009 (ip), vehicle: distilled water + Tween-80): 149 % of control [5 of 6 alive]
- T/C (dose: 150.0 mg/kg/injection, schedule: Q01DX009 (ip), vehicle: distilled water + Tween-80): 128 % of control
- survivor count (dose: 300.0 mg/kg/injection, schedule: Q01DX009 (ip), vehicle: distilled water + Tween-80): 3 of 6

SMILES: O=C1/C(=C/c2ccc(Cl)cc2)SC(=S)N1C1CC1
- survivor count (dose: 100.0 mg/kg/injection, schedule: Q01DX005 (ip), vehicle: Klucel (hydroxypropylcellulose) (HPC)): 5 of 5
- survivor count [11]: 5 of 5

SMILES: CCc1ncnc2cc(OCC3CO3)c(OC)cc12 (centres undefined)
- T/C (dose: 12.5 mg/kg/injection, schedule: Q01DX005 (ip), vehicle: saline): 130, 132, 133 % of control
- T/C (dose: 25.0 mg/kg/injection, schedule: Q01DX005 (ip), vehicle: saline): 138 % of control
- survivor count (dose: 100.0 mg/kg/injection, schedule: Q01DX005 (ip), vehicle: saline): 5 of 6 and 6 of 6
- survivor count (dose: 200.0 mg/kg/injection, schedule: Q01DX005 (ip), vehicle: saline): 0 of 6 and 1 of 6

SMILES: C[N+]12CCC34C5=CC(=O)C(=O)C=C5[N+]5(C)C(=O)CC6OCC=C(C1)C(CC32)C6C45 (centres undefined)
- survivor count [14]: 0 of 6
- survivor count [15]: 0 of 6
- survivor count [16]: 0 of 6

SMILES: CC(=O)N(CCCN1C(=O)c2ccccc2C1=O)c1ccc2c(c1)c(-c1ccccc1)nc1cc([N+](=O)[O-])ccc12
- survivor count (dose: 12.5 mg/kg/injection, schedule: Q01DX009 (ip), vehicle: other): 6 of 6
- survivor count (dose: 25.0 mg/kg/injection, schedule: Q01DX009 (ip), vehicle: other): 5 of 6 and 6 of 6
- survivor count [5]: 5 of 6

SMILES: CCOC(=O)c1ccc2c(c1)nc(-c1ccccn1)n2CCc1ccccn1
- survivor count (dose: 50.0 mg/kg/injection, schedule: Q01DX005 (ip), vehicle: Klucel (hydroxypropylcellulose) (HPC)): 6 of 6

SMILES: CCc1c(NCCCl)c(C(=O)NCCCl)c2nc3ccccc3n2c1NCCCl
- survivor count [14]: 0 of 6
- survivor count [15]: 0 of 6
- survivor count [16]: 0 of 6

SMILES: Cc1ccc(NCCN2CCC(C3CCN(CCNc4ccc(C)c5sc6ccccc6c(=O)c45)CC3)CC2)c2c(=O)c3ccccc3sc12
- survivor count (dose: 25.0 mg/kg/injection, schedule: Q01DX005 (ip), vehicle: saline with Tween-80): 6 of 6
- survivor count (dose: 50.0 mg/kg/injection, schedule: Q01DX005 (ip), vehicle: saline with Tween-80): 6 of 6
- survivor count (dose: 100.0 mg/kg/injection, schedule: Q01DX005 (ip), vehicle: saline with Tween-80): 6 of 6

SMILES: c1cc2sc3ccc(OCCCN4CCCCC4)cc3c2cc1OCCCN1CCCCC1
- survivor count [8]: 1 of 6
- survivor count [6]: 0 of 6
- survivor count [1]: 0 of 6

SMILES: O=C1C=C(NCCNCCO)C(=O)c2ccccc21
- survivor count [3]: 3 of 6
- survivor count [4]: 0 of 6
